Measurements taken from patent US6410587B1, “Compounds and therapies for the prevention of vascular and non-vascular pathologies” (NeoRx Corporation, priority 1997, dated 2002).
pEC50: −log10 of the molar value.

Test system: TGF-beta
Experiment: TGF-beta production by human VSMCs in culture
Format: cell-based
Conditions: VSMC, read-out: ED50 for stimulating TGF-beta production

Compound: CC/C(=C(\c1ccccc1)c1ccc(OCCN(C)C)cc1)c1ccccc1 [TMX, trans-2-[4-(1,2-diphenyl-1-butenyl)phenoxy]-N,N-dimethylethylamine]
- pEC50: 7.30
